Among the data in US9834551B2, “Substituted pyrrolo[2,3-b]pyrazines and substituted pyrazolo[3,4-b]pyridines as ITK and JAK kinase inhibitors” (Arrien Pharmaceuticals LLC, priority 2013, dated 2017) are IC50 values, retold here.

This assay has as its system IL-2 release from CD4+ T cells. The assay is described as follows: IL-2 release from CD4+ T cells (HTRF). It counts as cell-based. The settings on record: read-out: inhibition of IL-2 release from CD4+ T cells.

With `C[C@@H]1CCN(C(=O)CC#N)C[C@@H]1N(C)c1ncnc2[nH]ccc12` [CP-690550/Tofacitinib, Tofacitinib], the IC50 turned out to be 1200 nM.
